In PubChem BioAssay AID1347426 (Functional Genomics Laboratory (NCATS/FGL), 2020):
The whole screen tested about 31,000 sequences, of which about 1,400 (4.5%) were called active.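 How the source made its calls: active means median seed-adjusted z-score above 1 or below -1; inactive means the rest.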 The list shows a part of the results.

Test: Novel Modifiers of Survival Motor Neuron (SMN) Protein: Gene Identification via Genome-wide siRNA Screen;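 further: luminescence tracks full-length SMN protein made from the SMN2 reporter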
Conditions: HEK293T SMN2-luciferase reporter, siRNA knockdown, 72 h; actives lie on both sides
In short: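 Luciferase signal, proportional to full-length SMN made from an SMN2 cDNA reporter in stable HEK293T cells, was read 72 h after siRNA reverse transfection. Values were expressed as MAD scores after non-targeting-control normalization and log10 conversion; seed analysis flagged off-targets.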

Row | Sequence | median seed-adjusted z-score
1 | CAGCUAAUUCUGAAACAUATT against HSD17B3 | inactive: 0.734
2 | CUACUUUAAGUUCCUGUUUTT against CHST14 | inactive: 0.228
3 | GCUAGAGGCAGUAAAUGGATT against HSPA12B | inactive: -0.141
4 | CGUAUACUACAUCCUCAAATT against ZNF486 | inactive: 0.324
5 | ACAUCAAACUGACCGACUUTT against RPS6KB2 | inactive: 0
6 | AGCUGAGGCAGGUUGGUCATT against ACOT2 | inactive: 0.578
7 | CGAAGGUUAUCGUCACGGUTT against PCDHGA2 | inactive: -0.8
8 | ACACCAGCCUUGCACCUGATT against NCR1 | inactive: -0.26
9 | UGGGAACAAUAAACCAGUATT against ACR | inactive: -0.655
10 | UGUCCGUCUUUGUCAAUAATT against CTSF | inactive: 0.161
11 | CGACAAUAUUCCUUGAUGATT against CTGLF1 | inactive: 0.0231
12 | GCACAAUGUUAGAGGUGUUTT against PPIL3 | inactive: 0.282
13 | GCGGUUCUGGUAUAUCGAATT against LPGAT1 | inactive: 0.625
14 | CCAUCGAUGUCAACUAUGATT against PARP1 | inactive: -0.0913
15 | CAACAACGGCUUUUGGGAATT against DUSP21 | inactive: -0.0724
16 | GAUCUGUCUUGAUAACGAUTT against CENPC1 | inactive: 0
17 | GCUUAUGAACCGUUACGUATT against RAB9B | inactive: -0.0301
18 | GGGCAGACAUAUACACGAATT against ADSL | inactive: 0
19 | CAUUAAAGGUUUACCCAAUTT against IDH1 | inactive: 0.421
20 | GUACCCUGGAGGAAAGCGATT against GNRH2 | active: 1.13
21 | GGAAGACAAUUGCUAAGGUTT against TRO | active: 2.04
22 | CGUUAUCUGUGGGAGCGAUTT against GTF3C3 | inactive: 0.21
23 | CACUGGAUCUGAAGUAUGATT against IL28RA | inactive: 0

Row | Sequence | median seed-adjusted z-score
24 | CCAUCAGUACAUAUCCGAATT against ABCA8 | inactive: -0.666
25 | CCGGGAACGAAAUAAACUATT against FOSB | inactive: 0.266
26 | AGACUCACCUAGAGCUAAATT against AIF1 | inactive: -0.0293
27 | GCAAUGAAUUACGAAGGCATT against NPM1 | inactive: 0.141
28 | CGAGAGUAAUUUGAAGAAUTT against SIGMAR1 | active: -1.4
29 | GCCUAUGAGUACUUCACCATT against BAK1 | inactive: 0.0419
30 | CCACAAAGACCGUCGCUUUTT against RHOBTB2 | inactive: -0.139
31 | GUCUAUGCCUUCAUGAUCATT against SLC45A3 | inactive: -0.0257
32 | CCAGCGAAACCUCACCUAATT against MYT1 | inactive: -0.292
33 | CCUCCCGAAUGGUUCAGAATT against MLLT1 | inactive: -0.086
34 | GAAUCCGAAGGGAAAGGAATT against FOS | inactive: 0.343
35 | GACCUAAACUGCAAGGAGATT against SIPA1L3 | inactive: 0
36 | CGCAGUACAUUGACGGGCATT against CAMK2B | inactive: 0.0305
37 | AGUUUGACCUGUUUCCUAATT against DMRTA2 | inactive: 0.252
38 | GGAGAGUAUUGGAAGGACATT against PAAF1 | inactive: -0.422
39 | CGUGUUCAGUGGAAUCACATT against NPC1 | inactive: -0.195
40 | CAACAGUGGUCCGAAAAGATT against SNX1 | inactive: 0.0261
41 | GCAAGAUAUCAACCAUGUATT against 1-Mar | inactive: 0
42 | AGGGCACAUUCACCAGUGATT against GCG | active: -1.18
43 | CAGUUAAACCAGCUACUCATT against DBI | inactive: 0.0661
44 | GGGCUGUAUCUCCAUCUAATT against MAP7 | inactive: -0.22
45 | GGACUACUAUAGCAGAUCATT against SFRS10 | inactive: -0.071
46 | GAUCCAGGCUUUCAACGUATT against ATP6AP1 | inactive: 0.358

Fetched one by one from the list above:
Row | Sequence | median seed-adjusted z-score
34 | GAAUCCGAAGGGAAAGGAATT against FOS | inactive: 0.343
4 | CGUAUACUACAUCCUCAAATT against ZNF486 | inactive: 0.324

(listing goes on)

Row | Sequence | median seed-adjusted z-score
47 | UGAACGGAGUUAUUCAUGATT against GLT6D1 | inactive: 0.145
48 | GGAAAGUCUGAGACCAUAATT against GPR111 | inactive: 0
49 | UCCUGUUCGUGACAAGUGATT against JMJD3 | inactive: 0.871
50 | GGAUUCAAAUAGCAGUCAATT against TNFRSF19 | inactive: -0.672
51 | CAACGAGACUUAUCGAGAUTT against RBM6 | inactive: 0.193
52 | GAAAAGAGGUACAAAUCUATT against FDPS | inactive: 0.0115
53 | AAGUCUUCCCGGACAAAAUTT against CSTA | inactive: -0.351
54 | GUGUUUGAUAUACAGAGGATT against RABL2A | inactive: 0.794
55 | ACAUCGACAUUGGAGCAUATT against DHCR24 | inactive: 0.493
56 | GGAUGUUCAUAUUCGGGUUTT against TUSC3 | inactive: 0.138
57 | CAACGACCUGAGUAGGUUUTT against ATP10A | inactive: -0.435
58 | CCAUGUUCAGUUCCAAGGATT against CORO1A | inactive: 0.569
59 | GGCAGAGACUCCAAAGUAATT against SNX10 | inactive: 0.391
60 | GGGUGUUAGGUAUCCAGGATT against USP26 | inactive: -0.0505
61 | AGCUUGGUAUACAACCUAATT against PSMAL | inactive: 0.525
62 | GUUUACCUCUGAGAUCUUUTT against TRMT2A | inactive: -0.588
63 | CGAAGGCACUAUCAAAGCATT against UPF1 | inactive: 0.253
64 | GCAAACCGGUUAAUCAAGATT against GGA2 | inactive: -0.142
65 | AGAUAUCCCAGAUACAUCATT against KRT2 | inactive: -0.451
66 | CAUCUAAUGUCAGUCCAUUTT against PRLR | inactive: 0.394
67 | CAGGCUUUGUUAGACGUAATT against ZNF157 | inactive: 0.137
68 | UCCUCAACGUGUGCGAUGATT against KCNG1 | inactive: -0.00995
69 | GCUUUGAAAGUGUCAGUCATT against SHC1 | inactive: 0.0401

Shown as a markdown table: entries from further up

| Row | Sequence | median seed-adjusted z-score |
| --- | --- | --- |
| 49 | UCCUGUUCGUGACAAGUGATT against JMJD3 | inactive: 0.871 |
| 63 | CGAAGGCACUAUCAAAGCATT against UPF1 | inactive: 0.253 |
